Literature values, collected in patent US20070197473A1, “Methods of using SAHA and Bortezomib for treating cancer” (priority 2005, published 2007).

System: carcinogen-induced (N-methylnitrosourea) mammary tumors
Conditions: rats; SAHA administered in diet over the 130 days of the study

## O=C(CCCCCCC(=O)Nc1ccccc1)NO [SAHA, N-Hydroxy-N′-phenyl octanediamide]
  inhibition of development and continued growth of mammary tumors: effective at inhibiting the development and continued growth
